Laboratory results published in the supplement of paper PMC10849652.
The other results are listed elsewhere or left out.

Sequences of proteins named here, by UniProt entry; tags and fusion partners are left off. A change or cut given only in a name is not applied to a line headed by its entry.
UniProt Q9NWZ8: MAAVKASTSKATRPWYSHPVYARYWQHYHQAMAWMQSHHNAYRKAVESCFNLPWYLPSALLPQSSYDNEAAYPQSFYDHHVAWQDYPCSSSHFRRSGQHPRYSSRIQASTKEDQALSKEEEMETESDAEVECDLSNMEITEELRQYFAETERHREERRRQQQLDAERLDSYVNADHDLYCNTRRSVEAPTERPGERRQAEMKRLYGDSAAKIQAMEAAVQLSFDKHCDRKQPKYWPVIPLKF
UniProt P23769: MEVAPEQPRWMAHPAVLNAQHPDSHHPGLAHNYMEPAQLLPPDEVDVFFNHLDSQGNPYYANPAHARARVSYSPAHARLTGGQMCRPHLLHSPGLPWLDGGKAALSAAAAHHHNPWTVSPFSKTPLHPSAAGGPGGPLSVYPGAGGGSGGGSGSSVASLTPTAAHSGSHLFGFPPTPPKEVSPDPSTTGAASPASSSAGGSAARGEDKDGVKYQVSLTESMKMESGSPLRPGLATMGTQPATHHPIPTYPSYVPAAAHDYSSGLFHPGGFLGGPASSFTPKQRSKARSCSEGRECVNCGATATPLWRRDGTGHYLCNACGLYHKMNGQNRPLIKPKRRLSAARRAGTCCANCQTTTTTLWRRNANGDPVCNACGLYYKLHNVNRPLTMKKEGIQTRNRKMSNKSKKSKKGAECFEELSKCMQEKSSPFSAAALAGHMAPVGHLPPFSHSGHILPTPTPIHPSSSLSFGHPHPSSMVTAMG
UniProt P16383: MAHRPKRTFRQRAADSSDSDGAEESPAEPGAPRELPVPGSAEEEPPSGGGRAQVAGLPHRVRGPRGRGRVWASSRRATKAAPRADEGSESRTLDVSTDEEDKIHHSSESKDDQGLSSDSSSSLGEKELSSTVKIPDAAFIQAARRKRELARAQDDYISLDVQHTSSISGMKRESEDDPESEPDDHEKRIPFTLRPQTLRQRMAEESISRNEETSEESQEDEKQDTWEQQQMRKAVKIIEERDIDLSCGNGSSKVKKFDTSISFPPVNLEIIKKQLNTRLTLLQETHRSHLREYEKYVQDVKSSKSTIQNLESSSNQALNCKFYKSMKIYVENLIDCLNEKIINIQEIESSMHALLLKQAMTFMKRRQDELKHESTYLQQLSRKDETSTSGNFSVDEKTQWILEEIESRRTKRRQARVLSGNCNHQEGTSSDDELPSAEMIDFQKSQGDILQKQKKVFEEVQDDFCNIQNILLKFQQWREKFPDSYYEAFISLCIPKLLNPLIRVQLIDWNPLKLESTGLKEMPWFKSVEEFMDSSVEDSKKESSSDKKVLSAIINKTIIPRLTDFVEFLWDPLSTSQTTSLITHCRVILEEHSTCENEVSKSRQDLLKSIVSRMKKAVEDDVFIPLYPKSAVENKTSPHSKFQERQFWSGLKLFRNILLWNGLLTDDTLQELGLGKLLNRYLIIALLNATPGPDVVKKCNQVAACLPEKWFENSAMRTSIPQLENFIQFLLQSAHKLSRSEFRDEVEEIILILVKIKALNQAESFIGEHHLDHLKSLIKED
UniProt Q6ZNW5: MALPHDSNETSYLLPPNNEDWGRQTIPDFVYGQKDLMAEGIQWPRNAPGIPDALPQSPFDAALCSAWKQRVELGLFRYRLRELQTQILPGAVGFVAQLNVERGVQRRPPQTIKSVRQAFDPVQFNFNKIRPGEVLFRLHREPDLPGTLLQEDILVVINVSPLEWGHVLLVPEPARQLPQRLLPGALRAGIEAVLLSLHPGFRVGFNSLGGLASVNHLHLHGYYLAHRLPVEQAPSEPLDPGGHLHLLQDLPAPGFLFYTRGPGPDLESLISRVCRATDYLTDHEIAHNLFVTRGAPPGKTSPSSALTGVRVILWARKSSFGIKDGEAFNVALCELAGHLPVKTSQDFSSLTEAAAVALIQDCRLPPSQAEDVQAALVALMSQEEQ
UniProt Q9UP38, whole entry, looked up: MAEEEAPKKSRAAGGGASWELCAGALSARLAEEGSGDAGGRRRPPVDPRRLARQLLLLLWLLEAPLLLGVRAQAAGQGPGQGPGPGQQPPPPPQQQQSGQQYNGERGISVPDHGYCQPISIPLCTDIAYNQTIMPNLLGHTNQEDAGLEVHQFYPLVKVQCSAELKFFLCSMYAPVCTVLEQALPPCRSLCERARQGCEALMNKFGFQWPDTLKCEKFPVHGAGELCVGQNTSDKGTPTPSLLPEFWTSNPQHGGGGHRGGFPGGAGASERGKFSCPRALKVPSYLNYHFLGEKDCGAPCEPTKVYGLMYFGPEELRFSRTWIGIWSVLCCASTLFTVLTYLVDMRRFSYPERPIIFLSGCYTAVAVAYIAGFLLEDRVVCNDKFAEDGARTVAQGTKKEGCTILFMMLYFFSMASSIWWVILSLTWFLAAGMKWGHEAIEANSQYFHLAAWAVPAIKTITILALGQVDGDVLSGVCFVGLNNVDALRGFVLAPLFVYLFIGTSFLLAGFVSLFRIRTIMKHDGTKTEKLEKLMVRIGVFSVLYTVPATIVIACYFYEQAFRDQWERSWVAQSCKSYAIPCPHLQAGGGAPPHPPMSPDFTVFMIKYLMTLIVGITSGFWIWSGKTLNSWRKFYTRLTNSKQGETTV
UniProt Q9BUM1: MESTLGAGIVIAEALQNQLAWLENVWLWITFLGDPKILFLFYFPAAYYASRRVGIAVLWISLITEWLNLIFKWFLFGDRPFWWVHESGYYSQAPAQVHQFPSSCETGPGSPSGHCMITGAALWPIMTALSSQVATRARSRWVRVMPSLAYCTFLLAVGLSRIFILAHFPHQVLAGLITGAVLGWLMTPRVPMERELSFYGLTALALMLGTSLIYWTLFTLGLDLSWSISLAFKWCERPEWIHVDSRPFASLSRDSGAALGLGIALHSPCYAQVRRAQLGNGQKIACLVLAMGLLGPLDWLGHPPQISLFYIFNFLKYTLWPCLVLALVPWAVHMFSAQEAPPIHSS
UniProt Q8TET4: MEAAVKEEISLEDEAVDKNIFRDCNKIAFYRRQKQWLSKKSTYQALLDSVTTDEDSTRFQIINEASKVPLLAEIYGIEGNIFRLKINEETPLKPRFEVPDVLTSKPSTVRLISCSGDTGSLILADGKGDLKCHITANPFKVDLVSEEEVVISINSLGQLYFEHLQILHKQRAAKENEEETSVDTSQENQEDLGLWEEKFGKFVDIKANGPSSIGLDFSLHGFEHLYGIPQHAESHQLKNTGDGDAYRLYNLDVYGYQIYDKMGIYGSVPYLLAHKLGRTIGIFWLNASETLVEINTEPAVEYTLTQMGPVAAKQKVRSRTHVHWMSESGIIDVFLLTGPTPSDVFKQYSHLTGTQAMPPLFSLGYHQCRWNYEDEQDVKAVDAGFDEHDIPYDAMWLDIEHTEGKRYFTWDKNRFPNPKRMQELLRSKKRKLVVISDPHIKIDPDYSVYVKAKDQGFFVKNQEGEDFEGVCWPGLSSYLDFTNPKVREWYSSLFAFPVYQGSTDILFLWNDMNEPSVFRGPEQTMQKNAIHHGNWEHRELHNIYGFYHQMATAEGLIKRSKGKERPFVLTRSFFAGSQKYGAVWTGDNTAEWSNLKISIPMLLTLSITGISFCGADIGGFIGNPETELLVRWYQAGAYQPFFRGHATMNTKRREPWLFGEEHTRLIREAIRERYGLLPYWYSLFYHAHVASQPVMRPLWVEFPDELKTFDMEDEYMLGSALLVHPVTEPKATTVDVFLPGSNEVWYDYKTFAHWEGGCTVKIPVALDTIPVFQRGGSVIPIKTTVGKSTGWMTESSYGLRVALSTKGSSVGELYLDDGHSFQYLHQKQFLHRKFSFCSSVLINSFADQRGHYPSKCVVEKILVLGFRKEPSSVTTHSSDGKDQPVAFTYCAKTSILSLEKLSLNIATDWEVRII
UniProt Q9BZ67: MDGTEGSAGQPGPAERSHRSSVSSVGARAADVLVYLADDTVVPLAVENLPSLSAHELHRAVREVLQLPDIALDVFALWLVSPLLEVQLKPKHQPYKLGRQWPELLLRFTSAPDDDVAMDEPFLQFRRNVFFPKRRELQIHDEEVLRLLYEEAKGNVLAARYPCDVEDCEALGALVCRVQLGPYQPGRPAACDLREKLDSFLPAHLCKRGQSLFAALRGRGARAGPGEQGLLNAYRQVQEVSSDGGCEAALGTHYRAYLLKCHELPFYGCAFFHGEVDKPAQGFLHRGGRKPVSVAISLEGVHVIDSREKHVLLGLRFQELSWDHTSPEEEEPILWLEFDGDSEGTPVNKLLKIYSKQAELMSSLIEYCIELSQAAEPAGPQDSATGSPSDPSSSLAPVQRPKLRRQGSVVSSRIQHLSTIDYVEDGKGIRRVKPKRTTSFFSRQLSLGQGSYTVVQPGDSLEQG
UniProt Q14435: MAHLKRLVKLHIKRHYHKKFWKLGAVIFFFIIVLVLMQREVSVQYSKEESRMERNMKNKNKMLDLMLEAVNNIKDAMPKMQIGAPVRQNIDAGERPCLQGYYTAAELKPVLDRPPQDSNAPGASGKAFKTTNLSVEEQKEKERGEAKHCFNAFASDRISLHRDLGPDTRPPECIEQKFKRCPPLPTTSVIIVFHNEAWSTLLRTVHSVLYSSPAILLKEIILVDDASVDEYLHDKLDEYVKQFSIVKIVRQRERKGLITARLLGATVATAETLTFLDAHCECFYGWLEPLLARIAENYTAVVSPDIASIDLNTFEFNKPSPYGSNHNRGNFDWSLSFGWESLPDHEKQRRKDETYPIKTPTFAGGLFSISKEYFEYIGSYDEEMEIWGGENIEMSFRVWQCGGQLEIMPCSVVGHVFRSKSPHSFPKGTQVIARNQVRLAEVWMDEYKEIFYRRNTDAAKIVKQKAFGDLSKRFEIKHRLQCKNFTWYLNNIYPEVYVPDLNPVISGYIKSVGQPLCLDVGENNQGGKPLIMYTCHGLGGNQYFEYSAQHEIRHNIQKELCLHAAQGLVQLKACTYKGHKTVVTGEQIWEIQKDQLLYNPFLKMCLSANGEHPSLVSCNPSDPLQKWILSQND
UniProt Q96QD9: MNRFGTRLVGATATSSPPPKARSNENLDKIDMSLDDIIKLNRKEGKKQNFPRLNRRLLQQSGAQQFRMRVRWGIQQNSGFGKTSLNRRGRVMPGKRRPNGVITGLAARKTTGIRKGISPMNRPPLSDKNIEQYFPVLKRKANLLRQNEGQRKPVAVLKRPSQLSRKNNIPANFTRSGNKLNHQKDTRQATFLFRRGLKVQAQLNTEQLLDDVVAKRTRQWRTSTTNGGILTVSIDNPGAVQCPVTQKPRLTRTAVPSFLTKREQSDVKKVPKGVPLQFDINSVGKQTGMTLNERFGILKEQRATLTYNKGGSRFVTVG
UniProt Q13467, whole entry, looked up: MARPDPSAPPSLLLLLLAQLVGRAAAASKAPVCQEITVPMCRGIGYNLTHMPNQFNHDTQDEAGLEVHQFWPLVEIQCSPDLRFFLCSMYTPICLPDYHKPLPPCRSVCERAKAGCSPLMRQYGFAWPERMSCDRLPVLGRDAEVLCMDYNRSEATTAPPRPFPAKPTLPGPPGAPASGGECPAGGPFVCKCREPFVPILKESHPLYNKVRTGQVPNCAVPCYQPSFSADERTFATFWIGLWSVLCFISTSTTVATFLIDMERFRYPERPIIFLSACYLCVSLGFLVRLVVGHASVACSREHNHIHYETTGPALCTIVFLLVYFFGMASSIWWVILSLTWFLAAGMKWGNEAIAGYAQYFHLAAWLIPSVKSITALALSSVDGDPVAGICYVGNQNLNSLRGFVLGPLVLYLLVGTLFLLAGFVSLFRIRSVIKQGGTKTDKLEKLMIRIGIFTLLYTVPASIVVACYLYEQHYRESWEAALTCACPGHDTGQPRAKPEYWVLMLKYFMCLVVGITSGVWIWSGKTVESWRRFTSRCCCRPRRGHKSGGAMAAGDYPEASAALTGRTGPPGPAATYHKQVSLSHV
UniProt P22083, whole entry, looked up: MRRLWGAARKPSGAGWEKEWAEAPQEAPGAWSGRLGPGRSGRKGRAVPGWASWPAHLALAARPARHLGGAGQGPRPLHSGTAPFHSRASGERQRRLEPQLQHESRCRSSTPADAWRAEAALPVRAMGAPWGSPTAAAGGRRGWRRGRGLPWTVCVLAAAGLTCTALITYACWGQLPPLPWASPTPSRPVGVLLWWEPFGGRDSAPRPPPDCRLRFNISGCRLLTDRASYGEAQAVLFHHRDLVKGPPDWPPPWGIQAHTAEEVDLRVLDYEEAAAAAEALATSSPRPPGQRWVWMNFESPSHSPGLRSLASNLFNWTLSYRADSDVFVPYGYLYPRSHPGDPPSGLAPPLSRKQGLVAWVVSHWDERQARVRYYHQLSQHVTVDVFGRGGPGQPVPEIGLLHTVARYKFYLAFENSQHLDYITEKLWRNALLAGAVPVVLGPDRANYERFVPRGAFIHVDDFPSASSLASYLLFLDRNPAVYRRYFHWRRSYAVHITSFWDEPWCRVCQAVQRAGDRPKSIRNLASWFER

Compound: CC1=C(C(CC(=O)N1)C2=CC=C(C=C2)C(F)(F)F)C(=O)NC3=C(C=C4C(=C3)C=NN4)F
Test: log2 fold change, soluble protein after heating vs DMSO (PISA); higher = thermal stabilisation; K562 cells, 10 uM, 30 min; active = over 0.2 and 3.5 SD of the protein, either way, in both replicates (recomputed)
Procedure, shortened: (§1)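 K562 cells at 2×10^6 cells/mL were exposed to 10 μM compound for 30 min, then aliquots were heated for 3 min across 48°C-58°C, pooled, and extracted in PBS containing 0.5% NP-40 at 4°C. The supernatant after 21,000xg for 90 min was taken as soluble protein and measured by TMTpro 16plex LC-MS/MS with channel sums equalised. Thermal stability is reported relative to control samples, with values from duplicates. Fold changes are given on a log2 scale.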

Row | Target | log2 fold change
1 | GEMIN8 (UniProt Q9NWZ8) | inactive: 0.021
2 | GATA2 (UniProt P23769) | inactive: -0.022
3 | GCFC2 (UniProt P16383) | inactive: 0.028
4 | GAGE1 (UniProt Q13065) | inactive: 0.022
5 | GDPGP1 (UniProt Q6ZNW5) | inactive: -0.056
6 | FZD1 (UniProt Q9UP38) | inactive: 0.288
7 | G6PC3 (UniProt Q9BUM1) | inactive: 0.013
8 | GANC (UniProt Q8TET4) | inactive: -0.141
9 | FRMD8 (UniProt Q9BZ67) | inactive: -0.343

Compound: CC1=C(C2=C(C=C1)C(=O)C3=CC=CC=C3N2CCCN)C
Test: as above
Procedure, shortened: as §1

Row | Target | log2 fold change
10 | GALNT3 (UniProt Q14435) | inactive: -0.027
11 | GCFC2 isoform 3 (UniProt P16383) | inactive: -0.234
12 | GEMIN8 (UniProt Q9NWZ8) | inactive: 0.061
13 | FYTTD1 (UniProt Q96QD9) | inactive: 0.065
14 | GCFC2 (UniProt P16383) | inactive: -0.014
15 | GANAB (UniProt Q14697) | inactive: 0.081
16 | GID4 (UniProt Q8IVV7) | inactive: -0.071
17 | GDPGP1 (UniProt Q6ZNW5) | inactive: 0.319
18 | GABPB1 isoform 3 (UniProt Q06547) | inactive: -0.257
19 | FZD5 (UniProt Q13467) | inactive: 0.164
20 | FRMD8 (UniProt Q9BZ67) | inactive: -0.042
21 | FUT4 (UniProt P22083) | inactive: -0.324
22 | FRMPD3 (UniProt Q5JV73) | inactive: 0.13
23 | FRY (UniProt Q5TBA9) | inactive: -0.007
